Reference: PubChem BioAssay AID1259254 (NCATS, 2017)
The deposit covers about 59,000 reagents; below is an unselected part. About 1,550 of them (2.6%) were called active. 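G2 share is only a proxy for re-replication; each gene was hit by three separate siRNAs, and active genes were retested.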 Raw values are not corrected between plates. The numbers tell different reagents against one gene apart. Not given: the amount of reagent.

- Assay: 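Genome-wide screen for genes that prevent DNA re-replication in cancer cells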 (primary screen)
- System: human HCT116 colorectal cancer cells
- Reagent: single siRNA against human genes
- Time to read-out: 3 days
- Detection: 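Nuclei stained with Hoechst and imaged; cell-cycle phase assigned by DNA content; G2 share scaled per plate, non-targeting siRNA 0%, GMNN siRNA 100%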
- Reading the numbers: G2 robust z-score and G2 cells, % of GMNN control: higher = more G2 cells, more excess DNA replication; raw share of cells in G2: higher = larger share of cells with G2 DNA content
- Active means: 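Active siRNAs have a G2 robust z of 5 or more median absolute deviations over the median, which in these data means about 38% or higher of GMNN control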

| gene | siRNA no. | G2 robust z-score | G2 cells, % of GMNN control | raw share of cells in G2 (%) | outcome |
| --- | --- | --- | --- | --- | --- |
| TRIM55 | 1 | 1.56 | 13.9 | 9.94 | inactive |
| TRIM55 | 2 | -1.29 | -6.14 | 1.97 | inactive |
| TRIM55 | 3 | 2.13 | 17.9 | 12.9 | inactive |
| PLIN2 | 1 | 3.14 | 25 | 17.1 | inactive |
| PLIN2 | 2 | -0.733 | -2.19 | 3.29 | inactive |
| PLIN2 | 3 | -0.34 | 0.572 | 3.75 | inactive |
| DNAH11 | 1 | -0.821 | -2.81 | 4.28 | inactive |
| DNAH11 | 2 | 1.35 | 12.5 | 9.18 | inactive |
| DNAH11 | 3 | -0.0933 | 2.31 | 5.59 | inactive |
| MFSD2B | 1 | 0.86 | 9.02 | 6.86 | inactive |
| MFSD2B | 2 | -0.333 | 0.627 | 3.68 | inactive |
| MFSD2B | 3 | 0.182 | 4.25 | 6.45 | inactive |
| COPG1 | 1 | 4.01 | 31.2 | 14.6 | inactive |
| COPG1 | 2 | 2.51 | 20.6 | 10.9 | inactive |
| COPG1 | 3 | 1.83 | 15.8 | 12.7 | inactive |

Part of the list above, limited to “G2 robust z-score”:
PLIN2 #1: 3.14
PLIN2 #2: -0.733
PLIN2 #3: -0.34
DNAH11 #1: -0.821

The list goes on:
| gene | siRNA no. | G2 robust z-score | G2 cells, % of GMNN control | raw share of cells in G2 (%) | outcome |
| --- | --- | --- | --- | --- | --- |
| NAT16 | 1 | -0.0948 | 2.3 | 4.56 | inactive |
| NAT16 | 2 | -0.557 | -0.95 | 2.99 | inactive |
| NAT16 | 3 | -0.279 | 1 | 5.06 | inactive |
| AKAP19 | 1 | -0.95 | -3.72 | 2.87 | inactive |
| AKAP19 | 2 | -0.634 | -1.49 | 3.02 | inactive |
| AKAP19 | 3 | 0.293 | 5.03 | 3.93 | inactive |
| FLYWCH2 | 1 | -0.155 | 1.87 | 4.84 | inactive |
| FLYWCH2 | 2 | 0.297 | 5.06 | 4.84 | inactive |
| FLYWCH2 | 3 | -0.332 | 0.632 | 2 | inactive |
| PPEF2 | 1 | 2.78 | 22.5 | 12.1 | inactive |
| PPEF2 | 2 | -1.41 | -6.92 | 2.22 | inactive |
| PPEF2 | 3 | -0.694 | -1.92 | 2.92 | inactive |
| MAJIN | 1 | -0.663 | -1.7 | 3.02 | inactive |
| MAJIN | 2 | -0.0102 | 2.9 | 4.16 | inactive |
| MAJIN | 3 | -1.24 | -5.78 | 1.51 | inactive |
